Laboratory results: PubChem BioAssay AID1671195 (Yale University, 2021)

Assay: 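Regulators of LDL receptor activity judged by labelled LDL uptake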 (primary screen)
Cell system: human Huh7 hepatoma cells
Reagents: siRNA pool against human genes, 18 nM
Timing: about 2 to 2.5 days of knockdown, then 8 h LDL uptake
Treatment: DiI-labelled LDL at 30 µg/ml for 8 h, in lipoprotein-deficient serum medium
Measurement: 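Fluorescent LDL signal imaged in cells, scaled to the plate median, robust z-score for each replicate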
Direction: robust z-score: higher = more LDL uptake after knockdown
Active means: 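a gene counts as active if at least two replicate z-scores exceed ±2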
Shown is an unselected part of about 22,000 deposited reagents. About 1,510 of all reagents (6.9%) count as active. 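Active includes knockdowns raising or lowering LDL uptake; positive z-scores mean more uptake, negative mean less.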 A number with no mark means an inactive call. Reagent sequences are not shown.

TESC (tescalcin) → robust z-score, replicate 1 = 0.686; robust z-score, replicate 2 = 0.523; robust z-score, replicate 3 = 1.71
CPNE7 (copine 7) → robust z-score, replicate 1 = -0.493; robust z-score, replicate 2 = 0.213; robust z-score, replicate 3 = -1.34
SNRPA1 (small nuclear ribonucleoprotein polypeptide A') → robust z-score, replicate 1 = 1.17; robust z-score, replicate 2 = 1.01; robust z-score, replicate 3 = 1.05
RAB35 (RAB35, member RAS oncogene family) → robust z-score, replicate 1 = -1.24; robust z-score, replicate 2 = -1.26; robust z-score, replicate 3 = -1.34
AMER2 (APC membrane recruitment protein 2) → robust z-score, replicate 1 = -0.433; robust z-score, replicate 2 = 0.61; robust z-score, replicate 3 = 0.574
CSE1L (chromosome segregation 1 like) → robust z-score, replicate 1 = 1.34 (active); robust z-score, replicate 2 = 2.54; robust z-score, replicate 3 = 2.22
LINC00944 (long independently transcribed non-coding RNA 944) → robust z-score, replicate 1 = -0.85; robust z-score, replicate 2 = -0.699; robust z-score, replicate 3 = -0.359
LINC00471 (long independently transcribed non-coding RNA 471) → robust z-score, replicate 1 = 1.22; robust z-score, replicate 2 = 0.631; robust z-score, replicate 3 = 0.467
SHISAL2A (shisa like 2A) → robust z-score, replicate 1 = 0.0699; robust z-score, replicate 2 = -0.558; robust z-score, replicate 3 = 0.236
NTRK1 (neurotrophic receptor tyrosine kinase 1) → robust z-score, replicate 1 = -0.771; robust z-score, replicate 2 = -0.639; robust z-score, replicate 3 = -1.23
NR2F6 (nuclear receptor subfamily 2 group F member 6) → robust z-score, replicate 1 = 1.21; robust z-score, replicate 2 = 0.982; robust z-score, replicate 3 = 1.16
TICRR (TOPBP1 interacting checkpoint and replication regulator) → robust z-score, replicate 1 = -0.366; robust z-score, replicate 2 = -0.207; robust z-score, replicate 3 = -0.278
ATP7B (ATPase copper transporting beta) → robust z-score, replicate 1 = 0.416; robust z-score, replicate 2 = 0.925; robust z-score, replicate 3 = 0.932
ELMOD1 (ELMO domain containing 1) → robust z-score, replicate 1 = -1.59; robust z-score, replicate 2 = -0.7; robust z-score, replicate 3 = -1.5
BTD (biotinidase) → robust z-score, replicate 1 = 0.614; robust z-score, replicate 2 = 0.77; robust z-score, replicate 3 = 1.39
NDUFC2 (NADH:ubiquinone oxidoreductase subunit C2) → robust z-score, replicate 1 = -0.438; robust z-score, replicate 2 = -0.646; robust z-score, replicate 3 = -0.853
PRKD1 (protein kinase D1) → robust z-score, replicate 1 = 0.0128; robust z-score, replicate 2 = -0.228; robust z-score, replicate 3 = 0.469
CRYBG3 (crystallin beta-gamma domain containing 3) → robust z-score, replicate 1 = 0.145; robust z-score, replicate 2 = 1.24; robust z-score, replicate 3 = 0.73
ATP5PF (ATP synthase peripheral stalk subunit F6) → robust z-score, replicate 1 = 1.59; robust z-score, replicate 2 = 1.56; robust z-score, replicate 3 = 0.484
TRO (trophinin) → robust z-score, replicate 1 = -0.504; robust z-score, replicate 2 = 0.433; robust z-score, replicate 3 = 0.428
SETD3 → robust z-score, replicate 1 = 0.0218; robust z-score, replicate 2 = -0.00588; robust z-score, replicate 3 = -0.405
RNF152 (ring finger protein 152) → robust z-score, replicate 1 = -0.729; robust z-score, replicate 2 = -1.67; robust z-score, replicate 3 = -0.962
ABCD3 (ATP binding cassette subfamily D member 3) → robust z-score, replicate 1 = -1.08; robust z-score, replicate 2 = -0.859; robust z-score, replicate 3 = -1.69
IGFL2 (IGF like family member 2) → robust z-score, replicate 1 = 1.83; robust z-score, replicate 2 = 1.56; robust z-score, replicate 3 = 1.97

2 of these entries, reformatted:
{"Gene": "TICRR (TOPBP1 interacting checkpoint and replication regulator)", "robust z-score, replicate 1": -0.366, "robust z-score, replicate 2": -0.207, "robust z-score, replicate 3": -0.278}
{"Gene": "ATP7B (ATPase copper transporting beta)", "robust z-score, replicate 1": 0.416, "robust z-score, replicate 2": 0.925, "robust z-score, replicate 3": 0.932}
